Article PMC11369260
No constants are given. Whether binding was seen depends on the method and setting. In cells and extracts the contact can be indirect. Some entries that bind do so weakly or less than the wild type. For part of these data: Sequences can lack the tags named with a protein. Each block holds one molecule with its values, some of them ahead of it.

Protein sequences, listed by entry. Tags and fused reporters are not part of them. Lines headed by an entry give the natural chain unless they say otherwise; changes in a name come on top. Chains listed by the source or under a name are the forms on record and can include a tag or linker. Residues count along the entry.
shRNA-resistant Flag-tagged WT c-Myc reconstituted in HT-29 cells (P01106, residues 16-454): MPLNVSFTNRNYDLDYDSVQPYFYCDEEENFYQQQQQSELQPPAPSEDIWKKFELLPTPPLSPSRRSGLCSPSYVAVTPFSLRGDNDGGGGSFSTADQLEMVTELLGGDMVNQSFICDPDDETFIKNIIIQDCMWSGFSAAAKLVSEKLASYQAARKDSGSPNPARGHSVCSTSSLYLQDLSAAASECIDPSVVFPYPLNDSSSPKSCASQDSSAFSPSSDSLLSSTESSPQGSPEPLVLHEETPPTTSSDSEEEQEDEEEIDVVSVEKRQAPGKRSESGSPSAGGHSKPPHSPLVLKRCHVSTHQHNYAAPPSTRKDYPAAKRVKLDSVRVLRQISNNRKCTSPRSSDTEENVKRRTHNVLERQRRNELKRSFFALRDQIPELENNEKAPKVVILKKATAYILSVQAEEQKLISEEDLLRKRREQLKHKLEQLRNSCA
shRNA-resistant Flag-tagged S415A c-Myc reconstituted in HT-29 cells (P01106-1, form named): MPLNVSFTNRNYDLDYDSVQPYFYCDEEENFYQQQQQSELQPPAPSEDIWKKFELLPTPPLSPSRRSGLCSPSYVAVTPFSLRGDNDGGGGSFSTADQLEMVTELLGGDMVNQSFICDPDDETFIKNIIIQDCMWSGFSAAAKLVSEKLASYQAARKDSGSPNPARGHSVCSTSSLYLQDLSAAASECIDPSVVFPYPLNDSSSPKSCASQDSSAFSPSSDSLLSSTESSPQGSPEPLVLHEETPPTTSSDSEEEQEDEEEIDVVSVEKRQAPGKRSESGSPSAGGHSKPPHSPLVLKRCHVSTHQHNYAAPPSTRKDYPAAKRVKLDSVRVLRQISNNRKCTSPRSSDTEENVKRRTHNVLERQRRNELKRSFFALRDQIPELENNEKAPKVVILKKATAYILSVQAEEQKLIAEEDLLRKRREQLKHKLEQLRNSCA

Legend:
HA-tagged MAGI3 = target: T1, HA-tagged MAGI3 (UniProt Q5TCQ9); assay: co-IP; co-IP in the reverse order of a1; 293T cells with Flag-tagged WT or S415A c-Myc and HA-tagged MAGI3, with or without OGT overexpression
T1 sequence: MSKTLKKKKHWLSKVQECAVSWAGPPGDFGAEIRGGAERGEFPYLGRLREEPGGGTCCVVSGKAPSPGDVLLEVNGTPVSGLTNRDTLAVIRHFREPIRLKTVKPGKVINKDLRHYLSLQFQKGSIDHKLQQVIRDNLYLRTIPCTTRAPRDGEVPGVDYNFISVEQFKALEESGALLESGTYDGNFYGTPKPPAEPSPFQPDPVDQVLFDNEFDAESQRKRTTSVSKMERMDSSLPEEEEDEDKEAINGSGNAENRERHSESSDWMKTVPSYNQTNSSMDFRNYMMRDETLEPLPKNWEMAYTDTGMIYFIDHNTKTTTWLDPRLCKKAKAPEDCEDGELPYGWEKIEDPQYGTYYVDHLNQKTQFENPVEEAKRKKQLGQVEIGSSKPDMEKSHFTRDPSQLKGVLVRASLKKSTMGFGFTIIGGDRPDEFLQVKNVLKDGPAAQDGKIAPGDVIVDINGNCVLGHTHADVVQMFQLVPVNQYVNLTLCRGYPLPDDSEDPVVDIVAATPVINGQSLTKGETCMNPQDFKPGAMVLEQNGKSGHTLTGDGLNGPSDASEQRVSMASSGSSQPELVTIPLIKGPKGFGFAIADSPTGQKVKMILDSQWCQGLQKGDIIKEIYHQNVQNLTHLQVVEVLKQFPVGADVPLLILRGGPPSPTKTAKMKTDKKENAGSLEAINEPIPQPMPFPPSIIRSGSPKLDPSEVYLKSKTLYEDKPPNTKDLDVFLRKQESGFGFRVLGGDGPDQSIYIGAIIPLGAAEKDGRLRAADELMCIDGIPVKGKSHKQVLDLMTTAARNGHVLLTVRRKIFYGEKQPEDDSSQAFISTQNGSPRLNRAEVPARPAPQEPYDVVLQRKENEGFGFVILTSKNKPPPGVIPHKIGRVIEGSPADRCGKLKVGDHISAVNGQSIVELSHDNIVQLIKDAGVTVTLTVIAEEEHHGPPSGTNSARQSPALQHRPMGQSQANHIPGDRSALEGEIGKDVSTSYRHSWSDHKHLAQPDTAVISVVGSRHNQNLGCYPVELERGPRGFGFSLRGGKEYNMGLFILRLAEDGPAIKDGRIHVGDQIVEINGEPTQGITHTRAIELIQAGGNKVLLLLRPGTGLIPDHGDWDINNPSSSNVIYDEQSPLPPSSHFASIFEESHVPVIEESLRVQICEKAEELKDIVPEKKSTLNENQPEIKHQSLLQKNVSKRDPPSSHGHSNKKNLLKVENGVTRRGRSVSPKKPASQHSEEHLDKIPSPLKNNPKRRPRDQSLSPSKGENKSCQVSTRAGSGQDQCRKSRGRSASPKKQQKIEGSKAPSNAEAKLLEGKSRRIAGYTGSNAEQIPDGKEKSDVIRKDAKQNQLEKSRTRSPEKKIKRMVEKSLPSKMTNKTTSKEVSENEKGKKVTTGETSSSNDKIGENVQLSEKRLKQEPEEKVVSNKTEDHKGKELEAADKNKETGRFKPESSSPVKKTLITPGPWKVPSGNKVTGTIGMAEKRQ

Flag-tagged WT c-Myc = Flag-tagged WT c-Myc (UniProt P01106); assay: co-IP; 293T cells ectopically expressing Flag-tagged WT or S415A c-Myc and HA-tagged MAGI3, with or without OGT overexpression; immunoblot
Flag-tagged S415A c-Myc = Flag-tagged S415A c-Myc (UniProt P01106); assay: as above
[1] = target: shRNA-resistant Flag-tagged WT c-Myc reconstituted in HT-29 cells (UniProt P01106); assay: co-IP; HT-29 cells reconstituted with WT or S415A c-Myc; endogenous MAGI3; with or without TMG treatment; immunoblot
[2] = target: shRNA-resistant Flag-tagged S415A c-Myc reconstituted in HT-29 cells (UniProt P01106); assay: as above

Molecule: Flag-tagged WT c-Myc (from UniProt P01106-1 1-439)
- binding (HA-tagged MAGI3): binds

B1: HA-tagged MAGI3 (protein, UniProt Q5TCQ9 1-1481)
chain: T1 sequence
- binding (Flag-tagged WT c-Myc): binds
- binding (Flag-tagged S415A c-Myc): binds

Further lines, results first:

- binding (HA-tagged MAGI3): binds
Molecule: Flag-tagged S415A c-Myc (from UniProt P01106-1 1-439)

- binding [1]: binds
- binding [2]: binds
B2: endogenous MAGI3 (protein, UniProt Q5TCQ9 1-1481)
chain: T1 sequence
